Results published in the supplement of paper PMC10849652.
Some of the results follow.

Chains of the proteins cited; added tags and fusions are not shown. Lines headed by an entry give the natural chain unless they say otherwise; changes in a name come on top.
UniProt O96006: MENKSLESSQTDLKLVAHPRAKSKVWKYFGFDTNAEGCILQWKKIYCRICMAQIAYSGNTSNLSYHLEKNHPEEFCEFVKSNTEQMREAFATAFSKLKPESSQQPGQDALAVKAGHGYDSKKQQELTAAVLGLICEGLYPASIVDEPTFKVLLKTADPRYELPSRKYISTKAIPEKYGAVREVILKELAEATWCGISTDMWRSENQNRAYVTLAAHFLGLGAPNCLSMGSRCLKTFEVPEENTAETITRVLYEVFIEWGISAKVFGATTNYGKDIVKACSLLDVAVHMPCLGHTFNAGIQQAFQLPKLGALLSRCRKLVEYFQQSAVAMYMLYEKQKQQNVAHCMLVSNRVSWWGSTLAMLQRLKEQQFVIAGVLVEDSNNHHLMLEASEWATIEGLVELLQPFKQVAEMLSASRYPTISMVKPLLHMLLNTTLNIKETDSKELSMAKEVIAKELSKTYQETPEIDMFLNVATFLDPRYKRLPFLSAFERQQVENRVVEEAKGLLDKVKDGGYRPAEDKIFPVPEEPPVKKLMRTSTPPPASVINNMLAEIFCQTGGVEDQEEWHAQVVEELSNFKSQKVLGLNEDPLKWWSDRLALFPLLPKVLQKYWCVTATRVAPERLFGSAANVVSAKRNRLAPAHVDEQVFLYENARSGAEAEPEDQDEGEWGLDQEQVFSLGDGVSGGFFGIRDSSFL
UniProt Q7Z739: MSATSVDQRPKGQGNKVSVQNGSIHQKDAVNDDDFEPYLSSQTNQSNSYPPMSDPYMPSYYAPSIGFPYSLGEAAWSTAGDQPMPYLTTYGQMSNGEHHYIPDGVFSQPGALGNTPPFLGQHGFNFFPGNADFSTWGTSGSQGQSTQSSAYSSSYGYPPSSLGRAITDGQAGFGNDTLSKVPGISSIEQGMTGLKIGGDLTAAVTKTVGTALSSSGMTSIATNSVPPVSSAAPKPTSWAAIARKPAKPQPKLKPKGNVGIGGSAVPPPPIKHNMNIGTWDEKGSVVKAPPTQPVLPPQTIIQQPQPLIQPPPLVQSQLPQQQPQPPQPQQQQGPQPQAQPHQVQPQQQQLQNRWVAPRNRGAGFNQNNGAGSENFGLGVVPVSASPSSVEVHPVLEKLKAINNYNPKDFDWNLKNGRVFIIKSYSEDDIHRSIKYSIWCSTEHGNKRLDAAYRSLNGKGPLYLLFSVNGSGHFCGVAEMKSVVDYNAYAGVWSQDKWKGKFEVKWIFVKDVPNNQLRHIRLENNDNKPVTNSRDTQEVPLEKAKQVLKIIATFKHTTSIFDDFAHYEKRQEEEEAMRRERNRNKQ
UniProt P16989, whole entry, looked up: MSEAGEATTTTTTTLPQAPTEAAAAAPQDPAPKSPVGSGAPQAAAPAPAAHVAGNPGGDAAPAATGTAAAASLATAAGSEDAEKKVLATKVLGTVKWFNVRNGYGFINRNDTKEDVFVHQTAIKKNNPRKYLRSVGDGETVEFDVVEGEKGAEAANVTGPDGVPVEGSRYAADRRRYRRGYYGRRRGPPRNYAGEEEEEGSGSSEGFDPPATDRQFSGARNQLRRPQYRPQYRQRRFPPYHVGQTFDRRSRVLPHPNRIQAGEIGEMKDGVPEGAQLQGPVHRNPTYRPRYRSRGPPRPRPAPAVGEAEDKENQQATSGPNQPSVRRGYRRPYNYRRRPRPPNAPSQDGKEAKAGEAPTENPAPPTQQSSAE
UniProt Q5T200: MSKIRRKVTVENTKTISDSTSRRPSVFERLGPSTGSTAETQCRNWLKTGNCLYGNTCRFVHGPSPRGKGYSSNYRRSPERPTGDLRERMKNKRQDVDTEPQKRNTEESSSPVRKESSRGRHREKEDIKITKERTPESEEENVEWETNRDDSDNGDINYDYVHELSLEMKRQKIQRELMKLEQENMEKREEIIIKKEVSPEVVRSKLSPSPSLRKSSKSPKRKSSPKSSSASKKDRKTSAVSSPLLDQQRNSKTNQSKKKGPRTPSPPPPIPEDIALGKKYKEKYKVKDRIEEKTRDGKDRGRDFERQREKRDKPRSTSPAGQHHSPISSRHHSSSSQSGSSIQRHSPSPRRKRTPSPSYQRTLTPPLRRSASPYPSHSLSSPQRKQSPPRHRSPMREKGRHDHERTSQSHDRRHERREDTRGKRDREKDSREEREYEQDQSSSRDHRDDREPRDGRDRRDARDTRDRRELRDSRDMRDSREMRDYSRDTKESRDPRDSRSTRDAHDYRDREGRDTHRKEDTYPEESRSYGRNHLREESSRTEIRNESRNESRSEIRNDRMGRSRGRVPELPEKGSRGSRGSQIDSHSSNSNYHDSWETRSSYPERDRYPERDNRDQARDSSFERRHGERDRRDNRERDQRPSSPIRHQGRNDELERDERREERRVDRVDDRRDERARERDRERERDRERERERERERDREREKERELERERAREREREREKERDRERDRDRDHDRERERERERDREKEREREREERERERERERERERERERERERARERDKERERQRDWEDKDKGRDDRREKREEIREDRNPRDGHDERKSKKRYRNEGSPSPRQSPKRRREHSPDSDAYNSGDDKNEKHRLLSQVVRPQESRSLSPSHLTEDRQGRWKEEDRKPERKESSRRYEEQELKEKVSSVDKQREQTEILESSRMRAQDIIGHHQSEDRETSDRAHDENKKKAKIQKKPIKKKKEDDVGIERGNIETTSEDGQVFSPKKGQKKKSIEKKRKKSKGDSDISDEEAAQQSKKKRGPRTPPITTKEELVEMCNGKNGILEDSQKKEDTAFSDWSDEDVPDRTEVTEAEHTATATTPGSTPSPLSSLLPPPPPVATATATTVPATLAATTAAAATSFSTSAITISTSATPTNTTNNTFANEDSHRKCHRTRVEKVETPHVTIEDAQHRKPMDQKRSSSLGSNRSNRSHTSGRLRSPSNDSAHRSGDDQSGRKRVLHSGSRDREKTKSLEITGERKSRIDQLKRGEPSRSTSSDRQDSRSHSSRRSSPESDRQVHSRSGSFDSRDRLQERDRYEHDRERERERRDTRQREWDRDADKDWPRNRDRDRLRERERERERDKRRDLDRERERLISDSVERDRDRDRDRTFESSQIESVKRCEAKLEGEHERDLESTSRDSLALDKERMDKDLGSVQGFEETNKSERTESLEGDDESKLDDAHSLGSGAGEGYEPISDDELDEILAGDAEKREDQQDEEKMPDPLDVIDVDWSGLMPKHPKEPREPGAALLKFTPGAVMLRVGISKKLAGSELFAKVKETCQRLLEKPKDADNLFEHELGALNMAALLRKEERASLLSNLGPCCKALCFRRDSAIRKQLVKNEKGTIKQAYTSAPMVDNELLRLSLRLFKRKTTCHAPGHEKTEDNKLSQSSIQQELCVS
UniProt Q96EC8: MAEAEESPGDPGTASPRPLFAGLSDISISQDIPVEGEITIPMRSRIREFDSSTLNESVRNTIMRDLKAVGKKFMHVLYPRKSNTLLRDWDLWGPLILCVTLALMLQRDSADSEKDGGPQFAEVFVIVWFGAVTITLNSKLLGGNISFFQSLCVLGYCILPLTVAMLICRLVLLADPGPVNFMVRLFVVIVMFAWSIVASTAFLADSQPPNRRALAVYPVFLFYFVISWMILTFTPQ
UniProt Q9GZM5: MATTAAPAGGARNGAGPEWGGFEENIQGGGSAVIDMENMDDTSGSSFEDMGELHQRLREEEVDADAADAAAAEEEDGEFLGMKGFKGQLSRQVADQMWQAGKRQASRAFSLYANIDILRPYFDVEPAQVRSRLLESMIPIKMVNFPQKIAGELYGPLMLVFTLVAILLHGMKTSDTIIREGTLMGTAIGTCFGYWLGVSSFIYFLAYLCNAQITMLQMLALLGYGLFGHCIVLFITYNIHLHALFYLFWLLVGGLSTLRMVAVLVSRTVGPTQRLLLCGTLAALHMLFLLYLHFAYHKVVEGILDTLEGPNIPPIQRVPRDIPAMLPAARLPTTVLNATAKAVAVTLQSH
UniProt Q8WU90: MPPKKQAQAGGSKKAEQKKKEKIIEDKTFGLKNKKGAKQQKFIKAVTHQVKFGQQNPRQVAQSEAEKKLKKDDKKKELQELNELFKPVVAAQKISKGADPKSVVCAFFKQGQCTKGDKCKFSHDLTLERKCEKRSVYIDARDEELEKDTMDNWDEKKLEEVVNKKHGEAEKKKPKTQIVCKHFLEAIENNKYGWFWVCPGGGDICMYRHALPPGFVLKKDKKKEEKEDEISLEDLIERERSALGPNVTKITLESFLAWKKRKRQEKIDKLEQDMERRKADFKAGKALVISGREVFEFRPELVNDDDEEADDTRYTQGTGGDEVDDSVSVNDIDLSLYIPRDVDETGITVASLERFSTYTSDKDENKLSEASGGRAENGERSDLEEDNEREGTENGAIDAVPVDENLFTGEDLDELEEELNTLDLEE
UniProt P49750: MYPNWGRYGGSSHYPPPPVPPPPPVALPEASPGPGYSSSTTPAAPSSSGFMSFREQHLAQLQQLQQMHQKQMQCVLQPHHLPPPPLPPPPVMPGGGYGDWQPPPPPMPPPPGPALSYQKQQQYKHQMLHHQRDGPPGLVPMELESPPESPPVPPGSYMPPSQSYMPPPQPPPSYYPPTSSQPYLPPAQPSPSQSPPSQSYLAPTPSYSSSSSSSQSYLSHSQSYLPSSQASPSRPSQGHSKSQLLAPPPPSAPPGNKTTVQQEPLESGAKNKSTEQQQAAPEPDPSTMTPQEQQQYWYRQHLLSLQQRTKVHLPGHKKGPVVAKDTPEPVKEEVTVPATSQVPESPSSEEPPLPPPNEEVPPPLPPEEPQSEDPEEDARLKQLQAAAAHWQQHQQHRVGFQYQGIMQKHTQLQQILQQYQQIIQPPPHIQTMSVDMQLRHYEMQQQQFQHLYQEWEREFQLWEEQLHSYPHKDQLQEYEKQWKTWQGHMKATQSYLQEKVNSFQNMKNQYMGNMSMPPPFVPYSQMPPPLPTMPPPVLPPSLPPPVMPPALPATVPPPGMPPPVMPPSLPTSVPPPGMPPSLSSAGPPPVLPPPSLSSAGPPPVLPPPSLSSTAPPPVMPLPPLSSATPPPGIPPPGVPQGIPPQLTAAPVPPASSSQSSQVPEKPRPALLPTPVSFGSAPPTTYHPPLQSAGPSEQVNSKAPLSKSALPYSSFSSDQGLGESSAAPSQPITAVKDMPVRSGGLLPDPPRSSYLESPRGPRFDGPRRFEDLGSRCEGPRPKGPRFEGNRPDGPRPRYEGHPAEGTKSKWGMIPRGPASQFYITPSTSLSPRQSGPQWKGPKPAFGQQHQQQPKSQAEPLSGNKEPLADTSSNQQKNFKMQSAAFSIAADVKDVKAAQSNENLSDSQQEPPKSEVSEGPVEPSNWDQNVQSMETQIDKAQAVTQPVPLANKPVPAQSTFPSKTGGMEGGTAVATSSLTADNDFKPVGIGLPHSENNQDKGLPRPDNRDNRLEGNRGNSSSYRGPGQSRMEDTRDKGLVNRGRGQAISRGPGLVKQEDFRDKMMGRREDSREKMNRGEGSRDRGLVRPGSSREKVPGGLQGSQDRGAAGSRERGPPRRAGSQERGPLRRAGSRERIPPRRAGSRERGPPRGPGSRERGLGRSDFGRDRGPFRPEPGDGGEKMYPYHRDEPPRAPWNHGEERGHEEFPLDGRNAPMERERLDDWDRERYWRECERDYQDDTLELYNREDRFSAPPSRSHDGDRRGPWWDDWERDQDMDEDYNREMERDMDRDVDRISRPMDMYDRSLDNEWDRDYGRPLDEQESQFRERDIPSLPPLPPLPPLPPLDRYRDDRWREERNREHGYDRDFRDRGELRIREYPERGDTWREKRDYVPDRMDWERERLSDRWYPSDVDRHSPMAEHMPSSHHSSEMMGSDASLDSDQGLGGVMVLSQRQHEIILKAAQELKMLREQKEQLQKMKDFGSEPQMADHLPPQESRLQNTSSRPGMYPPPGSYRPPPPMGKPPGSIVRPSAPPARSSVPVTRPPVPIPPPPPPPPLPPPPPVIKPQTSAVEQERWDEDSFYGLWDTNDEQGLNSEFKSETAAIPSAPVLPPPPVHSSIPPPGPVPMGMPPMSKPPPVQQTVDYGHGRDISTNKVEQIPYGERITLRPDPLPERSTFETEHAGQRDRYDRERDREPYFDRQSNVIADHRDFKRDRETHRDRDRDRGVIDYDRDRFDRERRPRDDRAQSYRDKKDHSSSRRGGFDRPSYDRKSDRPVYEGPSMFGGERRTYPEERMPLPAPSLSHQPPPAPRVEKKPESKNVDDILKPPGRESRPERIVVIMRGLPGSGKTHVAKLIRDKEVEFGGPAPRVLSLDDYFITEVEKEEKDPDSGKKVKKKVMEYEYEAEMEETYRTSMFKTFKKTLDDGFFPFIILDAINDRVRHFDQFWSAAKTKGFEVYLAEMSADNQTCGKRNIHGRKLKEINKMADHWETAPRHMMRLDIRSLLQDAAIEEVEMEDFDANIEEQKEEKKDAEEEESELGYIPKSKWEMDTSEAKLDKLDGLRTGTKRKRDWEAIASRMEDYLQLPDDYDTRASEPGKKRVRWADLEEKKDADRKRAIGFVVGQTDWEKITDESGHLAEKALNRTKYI

Legend:
Assay in all cases: log2 fold change, soluble protein after heating vs DMSO (PISA); higher = thermal stabilisation; K562 lysate, 10 uM; active = over 0.2 and 3.5 SD of the protein, either way, in both replicates (recomputed)
vemurafenib = compound: CCCS(=O)(=O)Nc1ccc(F)c(C(=O)c2c[nH]c3ncc(-c4ccc(Cl)cc4)cc23)c1F [vemurafenib]
Outline: (§1)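 K562 pellets were dounce-homogenised in PBS pH 7.4 containing 1 mM MgCl2, and the crude extract, at 1 mg/mL protein, was exposed to 10 μM compound for 30 min. Aliquots were heated for 3 min across 48°C-58°C, pooled, brought to 0.5% NP-40 at 4°C and spun at 21,000xg for 90 min, with the supernatant taken as soluble protein. TMTpro 16plex LC-MS/MS with equalised channel sums quantified that protein. Values are log-two fold changes in thermal stability relative to solvent controls, taken from duplicates.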

[1] = compound: CCCS(=O)(=O)Nc1ccc(F)c(C(=O)c2c[nH]c3ncc(Cl)cc23)c1F
Outline: as §1

barasertib = compound: CCN(CCCOc1ccc2c(Nc3cc(CC(=O)Nc4cccc(F)c4)[nH]n3)ncnc2c1)CCOP(=O)(O)O [barasertib]
Outline: as §1

[2] = compound: CC[C@@H]1C(=O)N(C)c2cnc(Nc3ccc(C(=O)NC4CCN(C)CC4)cc3OC)nc2N1C1CCCC1
Outline: as §1

volasertib = compound: CC[C@@H]1C(=O)N(C)c2cnc(Nc3ccc(C(=O)N[C@H]4CC[C@H](N5CCN(CC6CC6)CC5)CC4)cc3OC)nc2N1C(C)C [volasertib]
Outline: as §1

[3] = compound: CCn1c(C(=O)N(C2CC2)C2CC2)cc2c3c(ncn3C)c(Nc3cc(C)n(C)n3)nc21
Outline: as §1

[4] = compound: CCn1cc(-c2ccnc3[nH]c(-c4cccc(CN(C)C)c4)cc23)c(-c2ccc(NC(=O)N(C)C)cc2)n1
Outline: as §1

[5] = compound: CN1CCC(CNc2ccc3ncc(-c4cccc(OC(F)(F)F)c4)n3n2)CC1
Outline: as §1

saracatinib = compound: CN1CCN(CCOc2cc(OC3CCOCC3)c3c(Nc4c(Cl)ccc5c4OCO5)ncnc3c2)CC1 [saracatinib]
Outline: as §1

sotrastaurin = compound: CN1CCN(c2nc(C3=C(c4c[nH]c5ccccc45)C(=O)NC3=O)c3ccccc3n2)CC1 [sotrastaurin]
Outline: as §1

alvocidib = compound: CN1CC[C@H](c2c(O)cc(O)c3c(=O)cc(-c4ccccc4Cl)oc23)[C@H](O)C1 [alvocidib]
Outline: as §1

Tubastatin A = compound: CN1CCc2c(c3ccccc3n2Cc2ccc(C(=O)NO)cc2)C1 [Tubastatin A]
Outline: as §1

[6] = compound: CNC(=O)C1=CC=CC=C1NC2=NC(=NC=C2Cl)NC3=C(C=C(C=C3)N4CCOCC4)OC
Outline: as §1

defactinib = compound: CNC(=O)c1ccc(Nc2ncc(C(F)(F)F)c(NCc3nccnc3N(C)S(C)(=O)=O)n2)cc1 [defactinib]
Outline: as §1

[7] = compound: CNc1nc(-c2ccc3c(N)n[nH]c3c2)cc(N2C[C@@H](C(=O)NC3CCCCC3)CC[C@H]2C)n1
Outline: as §1

encorafenib = compound: COC(=O)N[C@@H](C)CNc1nccc(-c2cn(C(C)C)nc2-c2cc(Cl)cc(NS(C)(=O)=O)c2F)n1 [encorafenib]
Outline: as §1

[8] = compound: COC(=O)[C@H](CCSC)NC(=O)C1=C(C=C(C=C1)NC[C@H](CS)N)C2=CC=CC=C2
Outline: as §1

alisertib = compound: COc1cc(Nc2ncc3c(n2)-c2ccc(Cl)cc2C(c2c(F)cccc2OC)=NC3)ccc1C(=O)O [alisertib]
Outline: as §1

[9] = compound: COc1cc2nc(-c3cc(F)ccc3O)nc(N[C@@H]3CNC[C@H]3C(C)(C)O)c2cc1OC
Outline: as §1

gefitinib = compound: COc1cc2ncnc(Nc3ccc(F)c(Cl)c3)c2cc1OCCCN1CCOCC1 [gefitinib]
Outline: as §1

Measured: log2 fold change

ZBED1 (UniProt O96006)
inactive: vemurafenib 0.033 | [1] -0.021 | barasertib -0.004 | [2] 0.033 | volasertib -0.067 | [3] -0.016 | [4] 0.001 | [5] -0.042 | saracatinib -0.062 | sotrastaurin -0.042 | alvocidib 0.013 | Tubastatin A -0.129 | [6] 0.042 | defactinib -0.039 | [7] 0.062 | encorafenib 0.048 | [8] -0.04 | alisertib -0.014 | [9] -0.043 | gefitinib -0.014

ZFPL1 (UniProt O95159)
inactive: vemurafenib -0.069 | [1] 0.102 | barasertib -0.166 | [2] -0.042 | volasertib -0.12 | [3] -0.063 | [4] 0.116 | [5] -0.034 | saracatinib -0.052 | sotrastaurin -0.058 | alvocidib 0.019 | Tubastatin A 0.078 | [6] -0.01 | defactinib 0.066 | [7] -0.047 | encorafenib 0.046 | [8] -0.071 | alisertib -0.07 | [9] 0.311 | gefitinib -0.043

ZC2HC1A (UniProt Q96GY0)
active: [8] -0.235
inactive: vemurafenib 0.13 | [1] -0.032 | barasertib 0.078 | [2] 0.086 | volasertib 0.031 | [3] 0.035 | [4] -0.057 | [5] 0.117 | saracatinib -0.011 | sotrastaurin 0.016 | alvocidib -0.034 | Tubastatin A -0.044 | [6] -0.021 | defactinib -0.155 | [7] -0.04 | encorafenib 0.03 | alisertib -0.073 | [9] -0.021 | gefitinib 0.019

YTHDF3 (UniProt Q7Z739)
inactive: vemurafenib -0.019 | [1] 0.002 | barasertib 0.119 | [2] 0.058 | volasertib -0.071 | [3] 0.168 | [4] -0.041 | [5] 0.01 | saracatinib 0.076 | sotrastaurin -0.083 | alvocidib 0.03 | Tubastatin A -0.108 | [6] -0.071 | defactinib -0.05 | [7] -0.112 | encorafenib 0.097 | [8] 0.024 | alisertib 0.043 | [9] 0.009 | gefitinib 0.013

ZC3H4 (UniProt Q9UPT8)
inactive: vemurafenib 0.009 | [1] 0.036 | barasertib -0.028 | [2] 0.082 | volasertib 0.01 | [3] -0.031 | [4] -0.016 | [5] -0.051 | saracatinib -0.013 | sotrastaurin -0.019 | alvocidib -0.04 | Tubastatin A -0.035 | [6] 0.004 | defactinib 0.012 | [7] 0.049 | encorafenib 0.076 | [8] 0.033 | alisertib -0.066 | [9] -0.011 | gefitinib -0.009

YBX3 (UniProt P16989)
inactive: vemurafenib 0.044 | [1] -0.011 | barasertib -0.045 | [2] 0.079 | volasertib -0.002 | [3] -0.026 | [4] 0.045 | [5] 0.034 | saracatinib -0.008 | sotrastaurin -0.005 | alvocidib 0.018 | Tubastatin A 0.046 | [6] -0.003 | defactinib -0.015 | [7] -0.009 | encorafenib -0.025 | [8] -0.035 | alisertib 0.01 | [9] 0.005 | gefitinib 0

ZC3H13 (UniProt Q5T200)
active: alisertib -0.362
inactive: vemurafenib -0.027 | [1] -0.037 | barasertib -0.045 | [2] 0.036 | volasertib -0.013 | [3] -0.031 | [4] 0.033 | [5] 0 | saracatinib -0.046 | sotrastaurin 0.222 | alvocidib -0.063 | Tubastatin A 0.063 | [6] -0.073 | defactinib 0.088 | [7] -0.028 | encorafenib -0.069 | [8] 0.021 | [9] 0.016 | gefitinib -0.077

XPNPEP3 (UniProt Q9NQH7)
inactive: vemurafenib 0.037 | [1] -0.014 | barasertib -0.042 | [2] 0.046 | volasertib 0.049 | [3] -0.022 | [4] -0.032 | [5] 0.051 | saracatinib 0.013 | sotrastaurin -0.031 | alvocidib 0.014 | Tubastatin A 0.024 | [6] -0.009 | defactinib 0.02 | [7] 0.045 | encorafenib 0.03 | [8] -0.039 | alisertib -0.053 | [9] 0.013 | gefitinib -0.03

YME1L1 (UniProt Q96TA2)
active: [8] -0.301
inactive: vemurafenib 0.01 | [1] 0.011 | barasertib 0.036 | [2] -0.008 | volasertib -0.02 | [3] 0.035 | [4] 0.181 | [5] -0.088 | saracatinib 0.037 | sotrastaurin 0.055 | alvocidib 0.018 | Tubastatin A 0.048 | [6] 0.011 | defactinib 0.018 | [7] -0.061 | encorafenib 0.05 | alisertib -0.016 | [9] 0.028 | gefitinib 0.042

YIPF6 (UniProt Q96EC8)
inactive: vemurafenib -0.074 | [1] -0.016 | barasertib -0.021 | [2] 0.049 | volasertib 0.03 | [3] 0.033 | [4] -0.017 | [5] -0.032 | saracatinib 0.073 | sotrastaurin 0.037 | alvocidib -0.019 | Tubastatin A -0.001 | [6] 0.07 | defactinib 0.224 | [7] -0.064 | encorafenib -0.026 | [8] -0.004 | alisertib 0.094 | [9] -0.02 | gefitinib 0.006

2 consecutive records from above, quoted:
ZC3H13 (UniProt Q5T200)
active: alisertib -0.362
inactive: vemurafenib -0.027 | [1] -0.037 | barasertib -0.045 | [2] 0.036 | volasertib -0.013 | [3] -0.031 | [4] 0.033 | [5] 0 | saracatinib -0.046 | sotrastaurin 0.222 | alvocidib -0.063 | Tubastatin A 0.063 | [6] -0.073 | defactinib 0.088 | [7] -0.028 | encorafenib -0.069 | [8] 0.021 | [9] 0.016 | gefitinib -0.077

XPNPEP3 (UniProt Q9NQH7)
inactive: vemurafenib 0.037 | [1] -0.014 | barasertib -0.042 | [2] 0.046 | volasertib 0.049 | [3] -0.022 | [4] -0.032 | [5] 0.051 | saracatinib 0.013 | sotrastaurin -0.031 | alvocidib 0.014 | Tubastatin A 0.024 | [6] -0.009 | defactinib 0.02 | [7] 0.045 | encorafenib 0.03 | [8] -0.039 | alisertib -0.053 | [9] 0.013 | gefitinib -0.03

Next results

ZFC3H1 (UniProt O60293)
inactive: vemurafenib 0.044 | [1] 0.041 | barasertib 0.108 | [2] -0.003 | volasertib -0.048 | [3] 0.032 | [4] -0.04 | [5] 0.025 | saracatinib -0.099 | sotrastaurin 0.024 | alvocidib -0.031 | Tubastatin A 0.015 | [6] 0.076 | defactinib -0.029 | [7] 0.057 | encorafenib -0.012 | [8] 0.038 | alisertib 0.001 | [9] -0.019 | gefitinib 0.037

YIPF3 (UniProt Q9GZM5)
inactive: vemurafenib -0.019 | [1] 0 | barasertib 0.142 | [2] -0.026 | volasertib 0.036 | [3] 0.014 | [4] -0.096 | [5] 0 | saracatinib -0.035 | sotrastaurin -0.015 | alvocidib -0.023 | Tubastatin A 0.084 | [6] -0.008 | defactinib 0.007 | [7] 0.021 | encorafenib 0.028 | [8] -0.071 | alisertib 0.008 | [9] 0.007 | gefitinib 0.005

ZC3H15 (UniProt Q8WU90)
inactive: vemurafenib -0.047 | [1] 0.012 | barasertib -0.031 | [2] 0.07 | volasertib 0.011 | [3] -0.029 | [4] -0.081 | [5] 0.06 | saracatinib -0.002 | sotrastaurin 0.012 | alvocidib -0.036 | Tubastatin A 0.014 | [6] -0.005 | defactinib 0.01 | [7] 0.04 | encorafenib -0.002 | [8] -0.057 | alisertib -0.008 | [9] -0.003 | gefitinib -0.011

YKT6 (UniProt O15498)
inactive: vemurafenib -0.033 | [1] -0.028 | barasertib 0.021 | [2] 0.017 | volasertib 0.031 | [3] 0.026 | [4] 0.065 | [5] -0.156 | saracatinib -0.015 | sotrastaurin 0.015 | alvocidib 0.014 | Tubastatin A 0.014 | [6] -0.048 | defactinib -0.02 | [7] 0.052 | encorafenib 0.005 | [8] -0.034 | alisertib -0.003 | [9] 0.001 | gefitinib 0.032

YLPM1 (UniProt P49750)
inactive: vemurafenib 0.062 | [1] 0.005 | barasertib 0.032 | [2] 0.069 | volasertib -0.019 | [3] -0.018 | [4] 0.165 | [5] -0.085 | saracatinib 0.033 | sotrastaurin 0.012 | alvocidib 0.061 | Tubastatin A -0.041 | [6] 0.01 | defactinib 0.041 | [7] 0.131 | encorafenib 0.049 | [8] -0.09 | alisertib -0.033 | [9] 0 | gefitinib -0.086
